Test results taken from PubChem BioAssay AID504444 (National Center for Advancing Translational Sciences (NCATS), 2011).
In all, about 360,000 compounds went through this assay and about 7,500 (2.1%) were called active. The inconclusive results got no clear call from the source; some entries with a clear call stand among them for comparison. Calls follow the shape of the dose curve; as a rule, active = well fitted inhibition curve with a large enough effect; inconclusive = small, poorly fitted or top-dose-only effect, or effect the other way; inactive = flat fitted curve, though single readings scatter. A potency beside an inconclusive call is a rough fit, not a confirmed value.

Experiment: Nrf2 qHTS screen for inhibitors; also: nearly all actives have a fitted effect of over 60% in size
Conditions: A549 ARE-Fluc reporter, luciferase luminescence, 18-24 h; series mostly up to 46 µM
Outline: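 Reporter: ARE-Fluc in A549. Exposure: 18-24 h, 37 °C, 5% CO2, 5% FBS OPTI-MEM. Readouts: fluorescent cytotoxicity (CellTiter-Fluor), then luminescent Nrf2 signal after BugLite.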
Potency is read from the fitted curve at half-maximal effect.

SMILES	Potency
COc1cccc(NC(=O)Nc2ccc3c(c2)nc(C)n3C)c1	inconclusive: 18.4 µM [falling, single point]
O=C1c2cc(Cl)ccc2OC2(CCNCC2)C12CC(c1ccc(Cl)cc1)=NO2 (centres undefined)	inactive
COc1ccccc1NC(=O)c1ccc(Cl)c(S(=O)(=O)N2CCCCC2)c1	inconclusive: 16.4 µM [falling, single point]
CCOc1ccc(-c2nnn(CC(=O)Nc3cccc(OC)c3)n2)cc1OCC	inconclusive: 14.6 µM [falling, single point]
COc1cc(NC(=O)c2ccccc2)c(OC)cc1Cl	inactive
CCCSc1ccc(-c2nn(-c3ccccc3)cc2/C=C(/C#N)C(=O)N2CCOCC2)cc1	inconclusive: 29.1 µM [falling, single point]
Cc1cccc(-c2nnc3n2N=C(c2ccc(Br)cc2)CS3)c1	inconclusive: 1.64 µM [falling, partial curve, poor fit]
Cc1cc(OCc2cc(C(=O)N(C)C3CCOC3)no2)cc(C)c1Cl (centres undefined)	inconclusive: 1.3 µM [activator, full curve]
O=C(NCc1ccc(F)cc1)c1ccc(N2CCc3ccccc32)c([N+](=O)[O-])c1	inconclusive: 16.4 µM [falling, single point]
COc1cccc(-n2nnnc2SCC(=O)Nc2nc3c(s2)CCCC3)c1	inactive
COc1cc(O)c2c(=O)c(-c3ccc(O[C@@H]4O[C@H](CO)[C@@H](O)[C@H](O)[C@H]4O)cc3)coc2c1	inconclusive: 8.2 µM [activator, partial curve]
Fc1ccc(NC(=S)Nc2ccc(F)c(Cl)c2)cc1Cl	inconclusive: 29.1 µM [falling, single point]
Cn1cc(S(=O)(=O)N2CCCCC2)cc1C(=O)NCc1ccc(Cl)cc1	inconclusive: 16.4 µM [falling, single point]
CCOC(=O)c1cc2c(=O)n3ccccc3nc2n(Cc2ccco2)c1=NC(=O)c1ccc(OC)cc1OC	inconclusive: 14.6 µM [falling, single point]
CCCCOc1cccc(C(=O)Nc2ccc(NC(=O)c3cccs3)cc2)c1	inconclusive: 29.1 µM [falling, single point]
O=C(NCCNC(=O)c1cc(Cl)ccc1Cl)c1ccccn1	inconclusive: 5.17 µM [falling, partial curve]
O=C(Nc1ccc(S(=O)(=O)N2CCc3ccccc3C2)cc1)c1ccccc1	inconclusive: 5.17 µM [falling, full curve, poor fit]
COc1cnc(-c2ccccn2)nc1Sc1ccccc1	inactive
CCC(CC)c1nn2cc(-c3ccccc3)nc2s1	inconclusive: 0.259 µM [activator, full curve]
Cc1ccc(NC(=O)c2ccco2)c([N+](=O)[O-])c1	inactive
O=C(NC(=S)Nc1cccnc1Cl)c1ccc(F)cc1	inconclusive: 6.51 µM [activator, full curve]
Cc1ccc(C(=O)n2cnnc2N)cc1	active: 8.2 µM

Ten of the compounds above, in markdown:

| SMILES | Potency |
| --- | --- |
| Cc1cc(OCc2cc(C(=O)N(C)C3CCOC3)no2)cc(C)c1Cl (centres undefined) | inconclusive: 1.3 µM [activator, full curve] |
| O=C(NCc1ccc(F)cc1)c1ccc(N2CCc3ccccc32)c([N+](=O)[O-])c1 | inconclusive: 16.4 µM [falling, single point] |
| COc1cccc(-n2nnnc2SCC(=O)Nc2nc3c(s2)CCCC3)c1 | inactive |
| COc1cc(O)c2c(=O)c(-c3ccc(O[C@@H]4O[C@H](CO)[C@@H](O)[C@H](O)[C@H]4O)cc3)coc2c1 | inconclusive: 8.2 µM [activator, partial curve] |
| Fc1ccc(NC(=S)Nc2ccc(F)c(Cl)c2)cc1Cl | inconclusive: 29.1 µM [falling, single point] |
| Cn1cc(S(=O)(=O)N2CCCCC2)cc1C(=O)NCc1ccc(Cl)cc1 | inconclusive: 16.4 µM [falling, single point] |
| CCOC(=O)c1cc2c(=O)n3ccccc3nc2n(Cc2ccco2)c1=NC(=O)c1ccc(OC)cc1OC | inconclusive: 14.6 µM [falling, single point] |
| CCCCOc1cccc(C(=O)Nc2ccc(NC(=O)c3cccs3)cc2)c1 | inconclusive: 29.1 µM [falling, single point] |
| O=C(NCCNC(=O)c1cc(Cl)ccc1Cl)c1ccccn1 | inconclusive: 5.17 µM [falling, partial curve] |
| O=C(Nc1ccc(S(=O)(=O)N2CCc3ccccc3C2)cc1)c1ccccc1 | inconclusive: 5.17 µM [falling, full curve, poor fit] |

Continuation:

SMILES	Potency
O=[N+]([O-])c1cc(S(=O)(=O)C(F)(F)F)ccc1NCC1CCCO1 (centres undefined)	inconclusive: 16.4 µM [falling, single point]
COc1cccc(N(CC(=O)NCc2cccnc2)S(C)(=O)=O)c1	inconclusive: 6.51 µM [falling, single point]
Cc1cc(-c2nnc(SCCC(=O)Nc3ccccc3)o2)no1	inconclusive: 16.4 µM [falling, partial curve, poor fit]
COc1cccc(CN(C)C(=O)CC23CC4CC(CC(C4)C2)C3)c1OC	inconclusive: 29.1 µM [falling, single point]
COc1ccc(CC(=O)Nc2nc(-c3ccc(F)c(F)c3)cs2)cc1	inconclusive: 29.1 µM [falling, single point]
CCOc1ccc(S(=O)(=O)Nc2ccc(Cl)cn2)c(C)c1C	inactive
Cc1csc(NC(=O)C(C)Oc2ccc(Br)cc2)n1 (centres undefined)	inactive
CCCC(=O)N1CCCC(c2nc(-c3cccc(OC)c3)no2)C1 (centres undefined)	inconclusive: 2.31 µM [activator, full curve]
CCc1cc2c(NCC3CCCO3)ncnc2s1 (centres undefined)	inconclusive: 16.4 µM [falling, partial curve, poor fit]
O=c1[nH]c(C2CCN(S(=O)(=O)Cc3ccccc3)CC2)nc2c1nnn2Cc1ccccc1	inactive
CC(C)Oc1ccc(-c2nc(NCC3CCCO3)c3ccccc3n2)cc1 (centres undefined)	inconclusive: 11.6 µM [activator, partial curve, poor fit]
COc1ccc(C(=O)Nc2c(N)nc(SCC(=O)Nc3ccc(NC(C)=O)cc3)[nH]c2=O)cc1	inconclusive: 18.4 µM [activator, partial curve, poor fit]
Cc1ccc(S(=O)(=O)N2CCN(C(=O)Cn3c(=O)cnc4ccccc43)CC2)c(C)c1	inactive
Cc1ccc(NC(=O)COCc2cc(-c3cccs3)on2)cc1Cl	inconclusive: 8.2 µM [activator, partial curve]
CCOC(=O)C1(CCc2ccccc2)CCN(C(=O)CN2C(=O)CSC2=O)CC1	inconclusive: 3.66 µM [activator, full curve]
CCOc1ccc(OCCCC(=O)NCCc2ccc(OC)cc2)cc1	inconclusive: 25.9 µM [falling, single point]
CC1CN(CC(O)COc2ccc(C#N)cc2)CCN1CC(O)COc1ccc(C#N)cc1 (centres undefined)	inconclusive: 20.6 µM [falling, single point]
O=C(COc1coc(CN2CCN(c3ccccc3F)CC2)cc1=O)NCC1CCCO1 (centres undefined)	inactive
Cc1cc(O)c(C(C)C)cc1N=Nc1ccccc1C(=O)O	inconclusive: 14.6 µM [falling, partial curve]
CCN(CC)S(=O)(=O)c1ccc(OCC(=O)NC(=O)Cc2ccccc2)c([N+](=O)[O-])c1	inactive
CCCn1nnnc1NC(=O)COc1ccc(Cl)cc1C	active: 13 µM
COC(=O)CC1(C(=O)OC)Oc2ccc(Br)cc2C(=O)N1c1cc(Cl)c(Cl)cc1Cl (centres undefined)	inconclusive: 29.1 µM [falling, single point]
